PubChem BioAssay AID504764, Drosophila RNAi Screening Center, 2011

Aim: 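Genes whose knock-down alters Notch-dependent transcription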 (primary screen)
System: Drosophila Kc167 cells
Knock-down reagent: long dsRNA against Drosophila genes
Timing: about 5 days (4 days dsRNA, then 24 h after transfection)
Challenge: transfection of constitutively active membrane-tethered Notch lacking the extracellular domain, read 24 h later
Read-out: 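Firefly luciferase from an E(spl)m3 reporter with active Notch, plus control-promoter and uninduced reporter wells for normalisation; unnormalised counts, duplicate wells a and b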
Reading the numbers: induced reporter light, run 1, well a and induced reporter light, run 1, well b: higher = more light from the Notch target reporter with active Notch; control promoter light, run 1, well a and control promoter light, run 1, well b: higher = more light from the viral control promoter (cell number, transfection, viability); uninduced reporter light, run 1, well a: higher = more light from the Notch target reporter without active Notch
Active means: 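Hit if the duplicate-averaged log2 ratio of induced to control-promoter light gives a plate-wise z beyond ±2, or induced to uninduced beyond ±1.8; weak-control or discordant-duplicate wells dropped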
Calls: active = modifier hit (raised or lowered Notch signal); inactive = not a hit
The deposit covers about 22,000 reagents; below is a random part of those that have a named target and a result. Over the whole deposit, 403 (1.9%) were called active. 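Unnormalised raw counts per well; ratio z-scores behind the hit calls and whether each hit raises or lowers signal are not deposited.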 A plus sign joins genes that one reagent is predicted to hit. The record does not give: the amount of reagent.

target gene	amplicon	induced reporter light, run 1, well a	induced reporter light, run 1, well b	control promoter light, run 1, well a	control promoter light, run 1, well b	uninduced reporter light, run 1, well a	Outcome
CG10353	DRSC19354	1.21e5	1.71e5	2.47e5	2.29e5	8760	inactive
eIF5B	DRSC08429	1.26e5	1.65e5	2.02e5	1.68e5	6425	inactive
eIF5B	DRSC08710	89135	87240	1.45e5	1.24e5	5860	inactive
CG10725	DRSC09788	2.38e5	1.73e5	1.12e5	1.14e5	17135	inactive
salr	DRSC03607	1.07e5	1.68e5	65325	1.15e5	17320	inactive
Cpr47Ed	DRSC07331	1.17e5	1.15e5	1.41e5	1.32e5	10282	inactive
MED18	DRSC18549	1.05e5	1.07e5	1.99e5	2.25e5	10295	inactive
Ice1	DRSC04191	1.78e5	2.00e5	1.59e5	1.55e5	12880	inactive
Rtnl2	DRSC12609	89470	88945	81145	82670	6470	inactive
Dok	DRSC18204	41040	47445	54615	64780	9875	inactive
rump	DRSC16480	1.01e5	1.01e5	76975	73270	8325	inactive
fy	DRSC03533	1.21e5	1.37e5	62025	77870	15265	inactive
dj-1beta	DRSC14599	1.20e5	1.18e5	1.90e5	1.73e5	9765	inactive
l(2)27Cb (retired record)	DRSC02758	74710	57410	72960	61390	3990	inactive
CG31751	DRSC02464	45780	43240	49250	72020	3670	inactive
CG31751	DRSC02465	1.00e5	66655	69105	81310	4465	inactive
CG12517	DRSC02173	1.07e5	1.24e5	73310	1.07e5	15805	inactive
pita	DRSC04006	1.56e5	1.91e5	2.79e5	3.24e5	12500	inactive
pita	DRSC04435	2.40e5	2.13e5	1.83e5	1.81e5	15540	inactive
Gr59d	DRSC22553						active
CG34217	DRSC05083	57535	68970	73665	73735	4020	inactive
CG7222	DRSC07019	1.55e5	1.40e5	1.33e5	1.45e5	11665	inactive
ND-B12	DRSC04060	54325	44640	40710	27855	2450	inactive
CG8773	DRSC16444	1.95e5	1.44e5	1.70e5	1.44e5	12700	inactive
Npc2g	DRSC14296	1.15e5	1.12e5	1.77e5	1.81e5	11050	inactive
Rab9Db + Rab9Fa	DRSC18445	1.13e5	1.21e5	2.25e5	2.07e5	8985	inactive

Reformatted: 10 of the entries above
{"target gene":"l(2)27Cb (retired record)","amplicon":"DRSC02758","induced reporter light, run 1, well a":74710,"induced reporter light, run 1, well b":57410,"control promoter light, run 1, well a":72960,"control promoter light, run 1, well b":61390,"uninduced reporter light, run 1, well a":3990,"Outcome":"inactive"}
{"target gene":"CG31751","amplicon":"DRSC02464","induced reporter light, run 1, well a":45780,"induced reporter light, run 1, well b":43240,"control promoter light, run 1, well a":49250,"control promoter light, run 1, well b":72020,"uninduced reporter light, run 1, well a":3670,"Outcome":"inactive"}
{"target gene":"CG31751","amplicon":"DRSC02465","induced reporter light, run 1, well a":1.00e5,"induced reporter light, run 1, well b":66655,"control promoter light, run 1, well a":69105,"control promoter light, run 1, well b":81310,"uninduced reporter light, run 1, well a":4465,"Outcome":"inactive"}
{"target gene":"CG12517","amplicon":"DRSC02173","induced reporter light, run 1, well a":1.07e5,"induced reporter light, run 1, well b":1.24e5,"control promoter light, run 1, well a":73310,"control promoter light, run 1, well b":1.07e5,"uninduced reporter light, run 1, well a":15805,"Outcome":"inactive"}
{"target gene":"pita","amplicon":"DRSC04006","induced reporter light, run 1, well a":1.56e5,"induced reporter light, run 1, well b":1.91e5,"control promoter light, run 1, well a":2.79e5,"control promoter light, run 1, well b":3.24e5,"uninduced reporter light, run 1, well a":12500,"Outcome":"inactive"}
{"target gene":"pita","amplicon":"DRSC04435","induced reporter light, run 1, well a":2.40e5,"induced reporter light, run 1, well b":2.13e5,"control promoter light, run 1, well a":1.83e5,"control promoter light, run 1, well b":1.81e5,"uninduced reporter light, run 1, well a":15540,"Outcome":"inactive"}
{"target gene":"Gr59d","amplicon":"DRSC22553","Outcome":"active"}
{"target gene":"CG34217","amplicon":"DRSC05083","induced reporter light, run 1, well a":57535,"induced reporter light, run 1, well b":68970,"control promoter light, run 1, well a":73665,"control promoter light, run 1, well b":73735,"uninduced reporter light, run 1, well a":4020,"Outcome":"inactive"}
{"target gene":"CG7222","amplicon":"DRSC07019","induced reporter light, run 1, well a":1.55e5,"induced reporter light, run 1, well b":1.40e5,"control promoter light, run 1, well a":1.33e5,"control promoter light, run 1, well b":1.45e5,"uninduced reporter light, run 1, well a":11665,"Outcome":"inactive"}
{"target gene":"ND-B12","amplicon":"DRSC04060","induced reporter light, run 1, well a":54325,"induced reporter light, run 1, well b":44640,"control promoter light, run 1, well a":40710,"control promoter light, run 1, well b":27855,"uninduced reporter light, run 1, well a":2450,"Outcome":"inactive"}

Further entries follow.
target gene	amplicon	induced reporter light, run 1, well a	induced reporter light, run 1, well b	control promoter light, run 1, well a	control promoter light, run 1, well b	uninduced reporter light, run 1, well a	Outcome
jp	DRSC02213	2.29e5	2.54e5	1.89e5	1.74e5	16665	inactive
jp	DRSC02744	66585	57595	32360	34045	10092	inactive
Bre1	DRSC09742	1.13e5	1.14e5	88965	82715	11665	inactive
AkhR	DRSC03329	1.37e5	1.63e5	1.68e5	1.86e5	14615	inactive
CG10919	DRSC14283	60590	74845	65925	49395	6425	inactive
CG13137	DRSC02234	1.26e5	1.21e5	71185	90855	17785	inactive
RIC-3	DRSC04243	1.05e5	99575	80570	64295	5135	inactive
RIC-3	DRSC04543	67500	44530	49335	64875	3800	inactive
CG17304 (retired record)	DRSC15222	49650	56995	33875	33545	8315	inactive
CG8916	DRSC20120	1.08e5	86050	86550	83670	11382	inactive
l(3)mbt	DRSC16983	73945	68260	64500	69815	10735	inactive
Cf2	DRSC00744	15385	12970	12255	9505	7195	inactive
Pstk + CG14210 + Tim9b	DRSC19566	68450	70330	70445	94545	6175	inactive
CG6614	DRSC02974	2.34e5	2.10e5	2.34e5	2.08e5	17525	inactive
CG3085	DRSC04335	1.95e5	1.98e5	1.66e5	1.73e5	15650	inactive
TfIIS	DRSC03455	2.53e5	2.22e5	2.58e5	2.51e5	19125	inactive
CG12377 (retired record)	DRSC11671	1.44e5	1.35e5	1.23e5	95760	10710	inactive
CG12377 (retired record)	DRSC11672	1.51e5	1.12e5	1.09e5	96220	11035	inactive
CG11231 (retired record)	DRSC17207	1.24e5	1.21e5	1.75e5	1.74e5	9065	inactive
beta4GalT7	DRSC14385	1.51e5	1.50e5	2.49e5	2.25e5	13680	inactive
Ptpmeg	DRSC08684	1.11e5	1.03e5	2.06e5	2.13e5	8100	inactive
HPS1	DRSC06195	1.71e5	1.86e5	2.37e5	1.94e5	16592	inactive
CG43322	DRSC02280	78290	51185	70325	66435	4890	inactive
Argk2	DRSC10483	2.14e5	2.14e5	2.61e5	1.91e5	12230	inactive
CG13877 + pyx	DRSC08347	1.14e5	1.07e5	2.47e5	1.95e5	7428	inactive
CG18549	DRSC15347	2900	2490	4615	3605	775	inactive
CG11885	DRSC00329	1.61e5	1.81e5	3.30e5	2.78e5	15588	inactive
CG11878	DRSC14422	1.53e5	1.64e5	2.00e5	2.09e5	13390	inactive
Ucp4C	DRSC03132	1.58e5	1.59e5	1.84e5	1.33e5	8345	inactive
Rdh1	DRSC06812	2.18e5	1.92e5	2.35e5	1.97e5	19850	inactive
CG13924	DRSC08393	68505	1.18e5	1.92e5	1.30e5	6085	inactive
Trm7-34	DRSC16171	1.54e5	1.67e5	1.75e5	2.10e5	14190	inactive
sbr	DRSC19770	1.03e5	93055	1.12e5	1.50e5	5670	inactive
sbr	DRSC20368	45925	41965	55610	44070	2745	inactive
Trm1	DRSC02951	1.70e5	2.31e5	1.54e5	2.08e5	16460	inactive
Galt	DRSC03161	2.62e5	2.32e5	2.35e5	2.53e5	20300	inactive
CG30043	DRSC06285	1.08e5	99140	1.76e5	1.47e5	9850	inactive
CG6928	DRSC10749	85460	91960	62525	30830	8665	inactive
